In PMC9368548:
No constants are given. Whether binding was seen depends on the method and setting. Binding seen in cells or lysates may run through a third protein. Some entries that bind do so weakly or less than the wild type.

The chains behind the UniProt entries cited, without tags or fusion partners.
UniProt P97878: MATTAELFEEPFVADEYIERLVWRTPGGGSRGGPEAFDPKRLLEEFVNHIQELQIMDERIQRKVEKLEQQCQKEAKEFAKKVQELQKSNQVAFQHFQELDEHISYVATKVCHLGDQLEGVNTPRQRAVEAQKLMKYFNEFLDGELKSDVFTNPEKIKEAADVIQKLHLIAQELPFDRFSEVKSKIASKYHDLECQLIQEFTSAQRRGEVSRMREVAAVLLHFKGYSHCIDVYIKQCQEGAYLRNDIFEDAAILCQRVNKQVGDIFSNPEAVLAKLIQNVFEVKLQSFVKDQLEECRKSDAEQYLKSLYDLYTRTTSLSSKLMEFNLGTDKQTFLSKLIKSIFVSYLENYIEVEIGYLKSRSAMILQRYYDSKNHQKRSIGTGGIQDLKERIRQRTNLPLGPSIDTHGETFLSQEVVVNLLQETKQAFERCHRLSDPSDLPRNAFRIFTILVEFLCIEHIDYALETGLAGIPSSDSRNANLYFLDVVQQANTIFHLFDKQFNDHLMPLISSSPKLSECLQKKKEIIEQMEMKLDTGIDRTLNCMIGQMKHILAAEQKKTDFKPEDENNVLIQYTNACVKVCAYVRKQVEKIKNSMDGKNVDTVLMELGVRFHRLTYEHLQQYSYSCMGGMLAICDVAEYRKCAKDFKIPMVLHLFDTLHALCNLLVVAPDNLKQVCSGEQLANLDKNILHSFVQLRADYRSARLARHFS
UniProt Q07969: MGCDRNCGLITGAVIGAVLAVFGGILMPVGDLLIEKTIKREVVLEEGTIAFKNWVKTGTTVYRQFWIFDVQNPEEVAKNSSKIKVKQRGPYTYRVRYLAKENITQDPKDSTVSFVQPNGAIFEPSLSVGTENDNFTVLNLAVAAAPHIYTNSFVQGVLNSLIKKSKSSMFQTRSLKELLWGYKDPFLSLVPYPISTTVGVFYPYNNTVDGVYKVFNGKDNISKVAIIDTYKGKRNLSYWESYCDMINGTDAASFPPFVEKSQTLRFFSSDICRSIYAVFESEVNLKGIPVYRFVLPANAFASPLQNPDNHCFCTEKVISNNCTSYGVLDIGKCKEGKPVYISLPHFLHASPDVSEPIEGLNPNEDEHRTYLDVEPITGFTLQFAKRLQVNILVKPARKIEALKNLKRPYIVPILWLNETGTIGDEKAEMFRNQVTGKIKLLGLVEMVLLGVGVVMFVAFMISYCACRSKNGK
UniProt O54922: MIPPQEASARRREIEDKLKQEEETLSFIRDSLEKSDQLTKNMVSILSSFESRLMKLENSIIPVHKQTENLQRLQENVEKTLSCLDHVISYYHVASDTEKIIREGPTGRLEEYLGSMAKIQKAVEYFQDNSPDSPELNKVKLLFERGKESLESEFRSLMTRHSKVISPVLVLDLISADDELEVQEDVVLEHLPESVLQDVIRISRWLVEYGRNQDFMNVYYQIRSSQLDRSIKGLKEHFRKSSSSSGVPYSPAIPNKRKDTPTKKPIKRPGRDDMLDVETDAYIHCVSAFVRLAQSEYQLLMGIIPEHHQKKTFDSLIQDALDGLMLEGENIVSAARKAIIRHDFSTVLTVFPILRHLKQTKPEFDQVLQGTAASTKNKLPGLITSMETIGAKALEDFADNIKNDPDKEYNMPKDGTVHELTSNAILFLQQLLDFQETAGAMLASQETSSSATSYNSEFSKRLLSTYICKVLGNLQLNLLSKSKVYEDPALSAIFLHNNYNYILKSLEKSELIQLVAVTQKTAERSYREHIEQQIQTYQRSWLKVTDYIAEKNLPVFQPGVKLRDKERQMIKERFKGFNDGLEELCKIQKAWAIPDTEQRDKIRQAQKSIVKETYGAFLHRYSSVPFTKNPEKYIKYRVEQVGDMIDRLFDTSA
UniProt P35280: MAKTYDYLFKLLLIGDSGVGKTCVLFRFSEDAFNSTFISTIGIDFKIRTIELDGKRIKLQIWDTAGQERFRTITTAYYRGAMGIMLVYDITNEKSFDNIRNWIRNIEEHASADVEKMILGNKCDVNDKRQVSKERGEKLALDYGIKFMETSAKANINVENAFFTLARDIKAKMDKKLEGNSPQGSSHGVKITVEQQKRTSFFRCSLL
UniProt P61107: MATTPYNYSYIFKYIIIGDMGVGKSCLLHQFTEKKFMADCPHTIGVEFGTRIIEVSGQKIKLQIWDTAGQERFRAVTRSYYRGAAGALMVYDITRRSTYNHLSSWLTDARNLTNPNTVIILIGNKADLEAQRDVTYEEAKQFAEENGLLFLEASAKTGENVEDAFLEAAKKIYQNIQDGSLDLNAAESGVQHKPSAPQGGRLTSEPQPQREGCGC

How the values were obtained:
Test in all cases: proximity ligation; Duolink PLA on fixed, permeabilized L6-GLUT4myc myoblasts; endogenous proteins detected with pairs of primary antibodies; cells untreated or treated with 100 nM insulin (30 min) or 1 uM ionomycin (10 min), with or without the exocyst inhibitor ES2; signal-to-nuclei ratios
[1] = biological target: exocyst subunit EXOC5 (rat (endogenous in L6-GLUT4myc)) (UniProt P97878)
[2] = biological target: FFA translocase CD36 (cluster of differentiation 36) (rat (endogenous in L6-GLUT4myc)) (UniProt Q07969)
[3] = biological target: exocyst subunit EXOC7 (rat (endogenous in L6-GLUT4myc)) (UniProt O54922)

Substance | binding [1] | binding [2] | binding [3]
small GTPase Rab8a (from UniProt P35280 1-207) | binds | binds | 
Rab14 (from UniProt P61107 1-215) | binds | binds | 
exocyst subunit EXOC5 (from UniProt P97878 1-708) |  | binds | binds
